Test system: Adult mongrel dogs, left anterior descending coronary artery (LAD) occlusion/reperfusion
Assay: Infarct size in the dog, 60 min LAD occlusion and 3 h reperfusion
Assay type: in vivo
Settings: mean ± SEM
Protocol: Adult mongrel dogs of either sex, weighing 19.0-30.0 kg were fasted overnight, anaesthetized with intravenous sodium barbital (200 mg/kg) and sodium pentobarbital (15 mg/kg), and ventilated with room air supplemented with 100% oxygen at an end expiratory pressure of 5-7 cm H2O to prevent atelectasis. Arterial blood pH PO2 and PCO2 were monitored at selected intervals by an automatic blood gas system and maintained within a normal physiological range (pH 7.35-7.45, PO2 10.6-16.0 kPa, PCO2 3,3-4.7 kPa) by adjusting the respiratory rate and oxygen flow and by an infusion of 1.5% sodium bicarbonate when necessary. Body temperature was maintained at 38±1° C. by using a heating pad.
A double pressure-transducer-tipped catheter was inserted into the aorta and left ventricle via the left carotid artery for measurements of aortic and left ventricular pressure. Left ventricular dP/dt was determined by electronic differentiation of the left ventricular pressure pulse.
A left thoracotomy was performed at the fifth intercostal space. The lung was retracted, the pericardium incised, and the heart suspended in a cradle. A 10-15 mm segment of the left anterior descending coronary artery (LAD) was dissected from surrounding tissue. A calibrated electromagnetic flow probe was placed around the LAD to determine coronary blood flow. The left atrial appendage was cannulated for radioactive microsphere injections to determine regional myocardial blood flow to the ischemic and normal areas during reperfusion. Electrodes were attached to the left atrial appendage to pace the heart at 150 beats/min with an electronic stimulator (Grass SD9) when the heart rate dropped below 140 beats/min.
Animals were randomly assigned to five groups; those receiving 35 μg/kg drug 24 h intravenously before occlusion (24 h), those receiving 35 μg/kg drug 24 h before occlusion and 30 mg/kg aminoguanidine subcutaneously 60 min before occlusion, those receiving 70 μg/kg drug 10 min before occlusion (10 min), those receiving 30 mg/kg aminoguanidine 60 min before occlusion and vehicle controls. Hemodynamic variables were monitored and recorded throughout the experiment. The phosphoglycolipid of the subject invention, L34, formulated in 40% propylene glycol and 10% ethanol (tEOH) in Water for Injection (WFI) was diluted one to one in 5% dextrose in water (D5W) and injected as an intravenous bolus 24 h or 10 min before the experiment. The control group was treated with an equivalent volume of vehicle (40% propylene glycol, 10% EtOH in WFI diluted in D5W). All dogs were subjected to a 60 min period of LAD occlusion followed by 3 h of reperfusion.
Regional myocardial blood flow was measured by the radioactive microsphere technique. […]

SMILES | Transmural Collateral (Blood Flow) (L34 35 μg/kg 24 h before occlusion + AG 30 mg/kg s.c. 60 min before occlusion) [mL/min/g] | Transmural Collateral (Blood Flow) (L34 35 μg/kg i.v. 24 h before occlusion) [mL/min/g] | Transmural Collateral (Blood Flow) (L34 70 μg/kg i.v. 10 min before occlusion) [mL/min/g] | Transmural Collateral (Blood Flow) (AG 30 mg/kg alone, 60 min before occlusion) [mL/min/g]
CCCCCCCCCCCCCCCCCC(=O)O[C@H](CCCCCCCCCCC)CC(=O)N[C@H]1[C@H](OC[C@H]2OC(O)[C@H](NC(=O)C[C@@H](CCCCCCCCCCC)OC(=O)CCCCCCCCCCCCCCC)[C@@H](O)[C@@H]2O)O[C@H](CO)[C@@H](OP(=O)(O)O)[C@@H]1OC(=O)C[C@@H](CCCCCCCCCCC)OC(=O)CCCCCCCCCCCCC (stereo partly drawn) [L34, 2-Deoxy-6-O-[2-deoxy-4-O-phosphono-3-O-[(R)-3-tetradecanoyloxytetradecanoyl]-2-[(R)-3-octadecanoyloxytetradecanoylamino]-β-D-glucopyranosyl]-2-[(R)-3-hexadecanoyloxytetradecanoylamino]-D-glucopyranose] | 0.06 ± 0.01 | 0.06 ± 0.01 | 0.05 ± 0.01 | –
N=C(N)NN [AG, aminoguanidine, reference compound] | – | – | – | 0.07 ± 0.02
